Our source for the binding values is article PMC12346347.

Protein sequences, listed by entry. Tags and fused reporters are not part of them.
UniProt Q15154: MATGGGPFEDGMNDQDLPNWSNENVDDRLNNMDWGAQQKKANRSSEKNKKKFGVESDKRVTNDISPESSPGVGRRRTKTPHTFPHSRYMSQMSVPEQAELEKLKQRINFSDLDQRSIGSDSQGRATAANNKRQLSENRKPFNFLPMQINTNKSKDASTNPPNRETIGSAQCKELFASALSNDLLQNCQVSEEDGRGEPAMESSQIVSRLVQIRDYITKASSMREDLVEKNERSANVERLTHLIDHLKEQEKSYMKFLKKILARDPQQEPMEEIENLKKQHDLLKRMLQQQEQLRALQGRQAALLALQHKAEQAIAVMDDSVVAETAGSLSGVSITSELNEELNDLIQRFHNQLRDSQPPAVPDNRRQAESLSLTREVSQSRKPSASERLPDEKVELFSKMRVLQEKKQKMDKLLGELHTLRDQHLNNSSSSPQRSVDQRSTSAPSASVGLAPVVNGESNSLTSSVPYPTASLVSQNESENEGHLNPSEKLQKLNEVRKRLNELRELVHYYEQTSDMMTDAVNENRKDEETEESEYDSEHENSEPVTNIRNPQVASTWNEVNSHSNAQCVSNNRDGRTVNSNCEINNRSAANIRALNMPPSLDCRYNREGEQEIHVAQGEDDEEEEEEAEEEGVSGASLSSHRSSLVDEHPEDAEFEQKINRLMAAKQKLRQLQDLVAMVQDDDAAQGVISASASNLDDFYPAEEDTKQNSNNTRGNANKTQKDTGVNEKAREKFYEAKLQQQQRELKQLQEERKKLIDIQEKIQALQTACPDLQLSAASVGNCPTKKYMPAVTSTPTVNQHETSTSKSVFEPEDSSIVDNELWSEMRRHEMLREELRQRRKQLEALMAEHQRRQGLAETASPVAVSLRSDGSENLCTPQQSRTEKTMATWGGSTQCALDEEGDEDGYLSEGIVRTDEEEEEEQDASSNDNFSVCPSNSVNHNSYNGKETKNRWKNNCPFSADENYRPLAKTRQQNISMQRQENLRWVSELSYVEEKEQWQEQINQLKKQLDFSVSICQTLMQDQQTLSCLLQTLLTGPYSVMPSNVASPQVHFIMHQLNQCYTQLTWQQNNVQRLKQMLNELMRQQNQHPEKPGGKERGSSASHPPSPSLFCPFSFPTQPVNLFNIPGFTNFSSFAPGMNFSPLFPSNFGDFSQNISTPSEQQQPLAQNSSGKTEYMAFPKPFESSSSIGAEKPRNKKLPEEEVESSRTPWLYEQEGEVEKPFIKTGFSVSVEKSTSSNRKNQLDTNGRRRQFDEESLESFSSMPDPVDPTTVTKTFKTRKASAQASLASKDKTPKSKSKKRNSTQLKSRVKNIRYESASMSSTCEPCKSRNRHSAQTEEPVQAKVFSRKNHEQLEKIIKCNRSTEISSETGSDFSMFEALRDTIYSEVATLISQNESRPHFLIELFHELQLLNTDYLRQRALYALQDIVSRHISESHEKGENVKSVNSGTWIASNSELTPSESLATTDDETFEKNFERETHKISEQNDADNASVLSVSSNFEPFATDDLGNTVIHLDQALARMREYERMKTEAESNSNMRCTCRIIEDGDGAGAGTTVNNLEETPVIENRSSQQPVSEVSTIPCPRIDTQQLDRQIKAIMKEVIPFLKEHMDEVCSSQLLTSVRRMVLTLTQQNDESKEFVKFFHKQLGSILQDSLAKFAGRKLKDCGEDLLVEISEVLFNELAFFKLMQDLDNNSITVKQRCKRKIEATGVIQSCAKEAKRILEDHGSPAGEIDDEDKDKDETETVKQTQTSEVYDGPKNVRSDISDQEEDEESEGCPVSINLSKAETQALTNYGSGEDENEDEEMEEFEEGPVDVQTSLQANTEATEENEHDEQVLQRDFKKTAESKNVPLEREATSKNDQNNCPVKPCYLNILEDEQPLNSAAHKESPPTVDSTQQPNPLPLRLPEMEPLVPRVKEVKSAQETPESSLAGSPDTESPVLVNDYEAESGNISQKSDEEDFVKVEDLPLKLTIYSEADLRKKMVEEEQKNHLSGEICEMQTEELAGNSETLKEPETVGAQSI
UniProt O00139: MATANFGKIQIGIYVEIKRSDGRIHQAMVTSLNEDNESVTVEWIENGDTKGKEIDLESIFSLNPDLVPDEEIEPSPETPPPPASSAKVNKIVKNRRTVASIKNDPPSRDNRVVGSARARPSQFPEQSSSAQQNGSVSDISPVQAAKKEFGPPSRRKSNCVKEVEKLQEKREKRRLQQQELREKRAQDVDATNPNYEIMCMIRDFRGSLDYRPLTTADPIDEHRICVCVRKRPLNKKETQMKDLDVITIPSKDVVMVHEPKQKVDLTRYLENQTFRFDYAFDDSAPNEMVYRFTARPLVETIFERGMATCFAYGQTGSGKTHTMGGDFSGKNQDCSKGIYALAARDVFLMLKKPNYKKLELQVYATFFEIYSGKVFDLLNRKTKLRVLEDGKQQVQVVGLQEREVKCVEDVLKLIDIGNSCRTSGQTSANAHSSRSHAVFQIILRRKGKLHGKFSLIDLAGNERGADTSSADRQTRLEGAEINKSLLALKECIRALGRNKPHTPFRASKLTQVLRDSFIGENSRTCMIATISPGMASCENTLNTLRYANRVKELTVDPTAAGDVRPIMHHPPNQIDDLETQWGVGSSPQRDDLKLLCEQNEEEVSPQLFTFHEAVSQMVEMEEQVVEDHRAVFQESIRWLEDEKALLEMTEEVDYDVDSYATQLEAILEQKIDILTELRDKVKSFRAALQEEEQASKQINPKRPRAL

Results are given in words; binding and its absence hold for the method and conditions named. Binding seen in cells or lysates may run through a third protein. Here binding means that the protein was enriched with, or labelled near, the bait; the list need not be complete. Tags and fused reporters may be left off the sequences shown.

The assay addresses T1, Flag-tagged full-length human SDCCAG8 (human) (UniProt Q86SQ7).
T1 sequence: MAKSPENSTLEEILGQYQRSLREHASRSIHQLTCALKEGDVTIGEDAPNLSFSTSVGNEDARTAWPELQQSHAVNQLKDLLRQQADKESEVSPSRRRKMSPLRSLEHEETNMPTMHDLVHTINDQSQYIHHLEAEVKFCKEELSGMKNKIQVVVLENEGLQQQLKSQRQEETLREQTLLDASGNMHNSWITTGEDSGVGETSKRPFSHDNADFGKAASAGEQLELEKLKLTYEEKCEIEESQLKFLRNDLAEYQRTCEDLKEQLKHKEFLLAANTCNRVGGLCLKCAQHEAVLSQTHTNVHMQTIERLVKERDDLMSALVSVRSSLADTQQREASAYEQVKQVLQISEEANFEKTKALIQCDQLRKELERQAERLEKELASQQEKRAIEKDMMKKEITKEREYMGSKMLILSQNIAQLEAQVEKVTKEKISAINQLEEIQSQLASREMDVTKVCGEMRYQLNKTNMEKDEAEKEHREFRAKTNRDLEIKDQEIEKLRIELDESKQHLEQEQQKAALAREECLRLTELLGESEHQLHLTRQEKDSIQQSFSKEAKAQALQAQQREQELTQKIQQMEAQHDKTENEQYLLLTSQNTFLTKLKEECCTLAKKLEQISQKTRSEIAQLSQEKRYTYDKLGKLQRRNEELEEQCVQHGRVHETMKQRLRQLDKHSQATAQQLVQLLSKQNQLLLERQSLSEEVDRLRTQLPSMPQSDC
As to the kind of experiment: affinity purification with mass spectrometry; anti-Flag magnetic beads on lysates of HEK293T cells expressing Flag-hSDCCAG8-FL or Flag-hSDCCAG8-Mut; lysis buffer 0.2% Triton-X100, 0.05 mmol/L DTT, protease inhibitors; overnight at 4 °C; 5 washes with TBS; eluates analysed by MS (peptide confidence score > 10, ≥2 unique peptides).

Regarding “pericentriolar material 1 (PCM1), endogenous in HEK293T cells (from UniProt Q15154 1-2024)”, the binding result was “binds”.
Regarding “KIF2a, endogenous in HEK293T cells (from UniProt O00139 1-706)”, the binding entry is “binds”.
